Drawing on publication doi:10.1101/2021.01.08.425919, this text covers binding for two substances.

Sequences of proteins named here, by UniProt entry; tags and fusion partners are left off.
UniProt O60016: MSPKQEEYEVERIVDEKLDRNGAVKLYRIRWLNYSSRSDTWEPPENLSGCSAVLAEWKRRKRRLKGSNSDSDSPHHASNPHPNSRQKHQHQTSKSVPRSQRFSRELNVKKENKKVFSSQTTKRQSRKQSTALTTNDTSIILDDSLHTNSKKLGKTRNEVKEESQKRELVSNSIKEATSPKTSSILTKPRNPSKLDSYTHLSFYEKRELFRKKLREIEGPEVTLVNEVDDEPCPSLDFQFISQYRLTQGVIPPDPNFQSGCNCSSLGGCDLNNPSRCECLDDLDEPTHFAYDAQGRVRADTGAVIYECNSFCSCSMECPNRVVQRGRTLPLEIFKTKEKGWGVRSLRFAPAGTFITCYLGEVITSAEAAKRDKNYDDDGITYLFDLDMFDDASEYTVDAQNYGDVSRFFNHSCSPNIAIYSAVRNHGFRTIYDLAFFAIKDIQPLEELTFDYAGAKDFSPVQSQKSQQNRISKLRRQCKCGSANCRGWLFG
UniProt P46595: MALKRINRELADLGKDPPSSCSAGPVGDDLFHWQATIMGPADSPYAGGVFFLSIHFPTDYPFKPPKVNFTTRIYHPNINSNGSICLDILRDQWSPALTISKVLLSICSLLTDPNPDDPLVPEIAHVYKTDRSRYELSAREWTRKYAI

The target in assay [1] is recombinant Clr4 (Flag-Clr4 and Myc-Clr4 copies) (S. pombe) (UniProt O60016). Briefly: pull-down.
Assay [2] deals with T1, Cul4-GFP (S. pombe) (UniProt O14122).
T1 sequence: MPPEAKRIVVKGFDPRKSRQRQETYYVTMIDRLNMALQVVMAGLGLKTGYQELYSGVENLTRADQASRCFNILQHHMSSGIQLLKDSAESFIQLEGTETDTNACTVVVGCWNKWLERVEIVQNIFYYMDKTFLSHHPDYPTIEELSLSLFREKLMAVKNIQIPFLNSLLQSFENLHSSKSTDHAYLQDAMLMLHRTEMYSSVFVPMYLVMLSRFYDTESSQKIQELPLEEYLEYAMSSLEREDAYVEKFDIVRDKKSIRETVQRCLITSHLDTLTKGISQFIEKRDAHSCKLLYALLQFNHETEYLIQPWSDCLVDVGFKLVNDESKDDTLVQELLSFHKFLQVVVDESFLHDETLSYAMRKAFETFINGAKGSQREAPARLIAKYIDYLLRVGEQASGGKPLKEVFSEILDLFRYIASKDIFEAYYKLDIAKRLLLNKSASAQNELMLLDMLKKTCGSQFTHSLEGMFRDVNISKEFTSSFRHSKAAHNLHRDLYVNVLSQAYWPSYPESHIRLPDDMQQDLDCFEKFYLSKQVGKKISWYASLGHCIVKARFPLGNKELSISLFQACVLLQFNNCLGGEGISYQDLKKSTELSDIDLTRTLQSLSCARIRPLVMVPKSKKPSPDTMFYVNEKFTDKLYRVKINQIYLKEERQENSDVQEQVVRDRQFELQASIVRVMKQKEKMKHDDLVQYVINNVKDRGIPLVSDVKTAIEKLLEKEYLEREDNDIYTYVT
Briefly: co-IP.

The target in assay [3] is T2, Flag-Raf1 (S. pombe) (UniProt O74910).
T2 sequence: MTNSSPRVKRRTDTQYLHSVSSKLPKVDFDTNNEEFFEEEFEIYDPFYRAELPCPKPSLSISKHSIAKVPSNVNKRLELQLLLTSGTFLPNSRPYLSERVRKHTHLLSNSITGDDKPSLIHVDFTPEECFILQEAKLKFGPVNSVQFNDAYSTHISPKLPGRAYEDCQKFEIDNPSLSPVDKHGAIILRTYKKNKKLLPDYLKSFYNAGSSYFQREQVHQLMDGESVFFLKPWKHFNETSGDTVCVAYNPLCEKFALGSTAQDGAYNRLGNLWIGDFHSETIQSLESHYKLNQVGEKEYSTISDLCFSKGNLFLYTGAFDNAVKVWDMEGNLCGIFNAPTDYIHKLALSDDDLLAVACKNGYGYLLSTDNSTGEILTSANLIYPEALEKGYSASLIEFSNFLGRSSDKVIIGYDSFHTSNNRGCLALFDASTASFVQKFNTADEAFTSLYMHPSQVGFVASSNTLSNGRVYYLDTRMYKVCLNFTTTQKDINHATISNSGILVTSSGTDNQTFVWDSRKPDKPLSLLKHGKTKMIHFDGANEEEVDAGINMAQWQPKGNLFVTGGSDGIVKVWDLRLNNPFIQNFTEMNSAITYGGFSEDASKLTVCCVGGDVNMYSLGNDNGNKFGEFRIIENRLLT
The assay can be described thus: co-IP.

For assay [4], the target named is T3, Raf2-Flag (S. pombe) (UniProt O74560).
T3 sequence: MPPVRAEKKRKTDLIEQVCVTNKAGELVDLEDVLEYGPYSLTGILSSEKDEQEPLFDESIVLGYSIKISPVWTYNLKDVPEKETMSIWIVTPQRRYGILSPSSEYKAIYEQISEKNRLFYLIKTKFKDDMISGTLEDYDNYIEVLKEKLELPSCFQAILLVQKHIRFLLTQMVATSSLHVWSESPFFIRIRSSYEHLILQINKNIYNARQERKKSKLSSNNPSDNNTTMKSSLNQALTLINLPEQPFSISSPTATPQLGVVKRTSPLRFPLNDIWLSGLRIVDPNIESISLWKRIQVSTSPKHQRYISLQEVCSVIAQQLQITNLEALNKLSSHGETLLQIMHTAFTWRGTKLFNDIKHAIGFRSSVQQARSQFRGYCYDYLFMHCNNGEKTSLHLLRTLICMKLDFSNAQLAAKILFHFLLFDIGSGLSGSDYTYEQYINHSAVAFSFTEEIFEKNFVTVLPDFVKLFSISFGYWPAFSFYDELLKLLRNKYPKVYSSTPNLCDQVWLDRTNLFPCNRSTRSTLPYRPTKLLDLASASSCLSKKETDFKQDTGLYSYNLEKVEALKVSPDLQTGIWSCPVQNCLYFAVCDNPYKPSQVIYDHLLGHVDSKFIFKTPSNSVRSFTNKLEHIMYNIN
Briefly: co-IP.

Results are given in words; binding and its absence hold for the method and conditions named. For some of these results: In cells and extracts the contact can be indirect. Some results given as binding are weak or reduced against the parent protein; the word gives no strength. For some of these results: Where a sequence is shown, tags or fusion partners need not be part of it.

With “recombinant Clr4 (Flag-Clr4 and Myc-Clr4 copies) (from UniProt O60016 1-490) (enzyme)”, in assay [1], the binding result is recorded as “binds weakly”.
As to “E2 ubiquitin conjugating enzyme Ubc4 (from UniProt P46595 1-147)”, the binding result in assay [2], in assay [3] and in assay [4] was “binds” each time.
